{
  "source": "patent EP0802730B1",
  "about": "“PESTICIDAL COMPOUNDS” (BTG INTERNATIONAL LIMITED, priority 1995, dated 1996)",
  "system": "resistant strains of whitefly",
  "assay": "Further tests with various resistant strains of whitefly",
  "type": "in vivo",
  "settings": "result in words",
  "note": "Some entries share one result that the patent states for a list of compounds.",
  "data": [
    {"smiles": "C=CC(C)(C)C1=C(OC(=O)CC)C(=O)c2ccccc2C1=O", "note": "[Example 4]", "values": [
      {"measurement": "activity against resistant strains of whitefly", "value": "highly active"}
    ]},
    {"smiles": "C=CC(C)(C)C1=C(OC(=O)CCC)C(=O)c2ccccc2C1=O", "note": "[Example 5]", "values": [
      {"measurement": "activity against resistant strains of whitefly", "value": "highly active"}
    ]},
    {"smiles": "C=CC(C)(C)C1=C(OC(=O)CCCC)C(=O)c2ccccc2C1=O", "note": "[Example 6]", "values": [
      {"measurement": "activity against resistant strains of whitefly", "value": "highly active"}
    ]},
    {"smiles": "C=CC(C)(C)C1=C(OC(=O)CCCCC)C(=O)c2ccccc2C1=O", "note": "[Example 7]", "values": [
      {"measurement": "activity against resistant strains of whitefly", "value": "highly active"}
    ]},
    {"smiles": "C=CC(C)(C)C1=C(OC(=O)CCCCCCCCC)C(=O)c2ccccc2C1=O", "note": "[Example 8]", "values": [
      {"measurement": "activity against resistant strains of whitefly", "value": "highly active"}
    ]},
    {"smiles": "C=CC(C)(C)C1=C(OC(=O)C(C)C)C(=O)c2ccccc2C1=O", "note": "[Example 10]", "values": [
      {"measurement": "activity against resistant strains of whitefly", "value": "highly active"}
    ]},
    {"smiles": "C=CC(C)(C)C1=C(OC(=O)c2ccccc2)C(=O)c2ccccc2C1=O", "note": "[Example 11]", "values": [
      {"measurement": "activity against resistant strains of whitefly", "value": "highly active"}
    ]},
    {"smiles": "C=CC(C)(C)C1=C(OC)C(=O)c2ccccc2C1=O", "note": "[Example 12, 2-(1,1-dimethylprop-2-enyl)-3-methoxy-naphthalene-1,4-dione]", "values": [
      {"measurement": "activity against resistant strains of whitefly", "value": "highly active"}
    ]},
    {"smiles": "C=CC(C)(C)C1=C(OCc2ccccc2)C(=O)c2ccccc2C1=O", "note": "[Example 13]", "values": [
      {"measurement": "activity against resistant strains of whitefly", "value": "highly active"}
    ]},
    {"smiles": "C=CC(C)(C)C1=C(O)C(OC)(OC)c2ccccc2C1=O", "note": "[Example 14, 1,1-dimethoxy-2-hydroxy-3-(1,1-dimethylprop-2-enyl)-naphthalene-4-one]", "values": [
      {"measurement": "activity against resistant strains of whitefly", "value": "highly active"}
    ]},
    {"smiles": "C=CC(C)(C)C1=C(O)C(=NOC)c2ccccc2C1=O", "note": "[Example 15]", "values": [
      {"measurement": "activity against resistant strains of whitefly", "value": "highly active"}
    ]}
  ]
}
